Measured values: publication PMC10946153
No constants are given. Whether binding was seen depends on the method and setting. Binding seen in cells or lysates may run through a third protein. Some entries that bind do so weakly or less than the wild type.

By UniProt entry, the sequences of proteins in these tests, tags left out.
UniProt Q9BXK5: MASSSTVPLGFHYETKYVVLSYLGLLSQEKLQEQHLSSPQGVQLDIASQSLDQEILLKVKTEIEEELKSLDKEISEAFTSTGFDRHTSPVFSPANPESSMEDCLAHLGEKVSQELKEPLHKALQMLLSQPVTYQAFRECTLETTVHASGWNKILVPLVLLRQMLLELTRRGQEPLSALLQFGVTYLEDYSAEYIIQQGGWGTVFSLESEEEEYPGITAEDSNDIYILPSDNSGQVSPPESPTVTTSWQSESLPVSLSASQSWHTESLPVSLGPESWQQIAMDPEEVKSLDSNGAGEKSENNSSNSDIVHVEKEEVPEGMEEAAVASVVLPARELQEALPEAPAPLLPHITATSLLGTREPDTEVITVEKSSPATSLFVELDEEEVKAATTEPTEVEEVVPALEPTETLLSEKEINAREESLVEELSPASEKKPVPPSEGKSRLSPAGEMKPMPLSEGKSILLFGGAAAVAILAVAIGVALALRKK

Target: T1, Yeast mitochondrial escape 1-like 1 (YME1L) (human (endogenous in HK2)) (UniProt Q96TA2)
T1 sequence: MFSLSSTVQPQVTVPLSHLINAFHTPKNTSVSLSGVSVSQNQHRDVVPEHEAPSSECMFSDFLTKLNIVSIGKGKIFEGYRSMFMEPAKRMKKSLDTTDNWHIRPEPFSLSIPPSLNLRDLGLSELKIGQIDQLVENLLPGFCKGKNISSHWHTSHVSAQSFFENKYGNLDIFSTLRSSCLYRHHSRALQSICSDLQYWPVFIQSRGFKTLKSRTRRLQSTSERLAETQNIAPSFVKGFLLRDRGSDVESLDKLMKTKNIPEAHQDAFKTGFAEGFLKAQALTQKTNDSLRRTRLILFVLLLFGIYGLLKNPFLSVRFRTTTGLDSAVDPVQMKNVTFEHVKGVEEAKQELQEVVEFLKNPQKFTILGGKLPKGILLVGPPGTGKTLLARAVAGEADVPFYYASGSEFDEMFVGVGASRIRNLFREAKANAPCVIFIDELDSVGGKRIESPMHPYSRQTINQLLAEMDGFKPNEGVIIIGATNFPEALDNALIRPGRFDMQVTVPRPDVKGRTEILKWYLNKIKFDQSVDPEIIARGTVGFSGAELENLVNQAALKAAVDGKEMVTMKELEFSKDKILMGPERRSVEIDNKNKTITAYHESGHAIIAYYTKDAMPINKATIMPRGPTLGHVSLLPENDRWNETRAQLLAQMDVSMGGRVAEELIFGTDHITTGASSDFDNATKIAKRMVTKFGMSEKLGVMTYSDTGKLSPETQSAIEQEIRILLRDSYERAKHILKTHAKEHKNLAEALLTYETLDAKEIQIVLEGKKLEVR
Test: co-IP; endogenous proteins in HK2 cell lysates; antibody at 4 °C overnight, Protein A/G magnetic beads 2 h, western blotting; reciprocal; also after HG for 48 h (IP with anti-YME1L)

- binding: binds
Substance: BCL2-like 13 (BCL2L13) (from UniProt Q9BXK5 1-485)
